Paper PMC6315034
Results are given in words; binding and its absence hold for the method and conditions named. In cells and extracts the contact can be indirect. Some binding calls cover weakened binding; strength is not graded here.

By UniProt entry, the sequences of proteins in these tests, tags left out. Residues count along the entry.
UniProt Q9EP80: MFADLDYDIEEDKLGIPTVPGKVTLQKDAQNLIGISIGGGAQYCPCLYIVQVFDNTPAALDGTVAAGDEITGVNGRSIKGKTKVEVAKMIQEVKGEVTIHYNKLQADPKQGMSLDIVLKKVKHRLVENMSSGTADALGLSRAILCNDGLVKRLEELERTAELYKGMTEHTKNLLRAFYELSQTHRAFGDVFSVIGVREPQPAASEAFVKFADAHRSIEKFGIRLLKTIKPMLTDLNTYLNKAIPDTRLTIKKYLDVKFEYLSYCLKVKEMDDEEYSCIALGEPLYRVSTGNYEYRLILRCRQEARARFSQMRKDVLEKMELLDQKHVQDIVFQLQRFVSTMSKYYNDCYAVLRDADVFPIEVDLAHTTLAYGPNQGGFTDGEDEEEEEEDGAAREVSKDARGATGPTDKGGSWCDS
UniProt P19491, residues 22-883: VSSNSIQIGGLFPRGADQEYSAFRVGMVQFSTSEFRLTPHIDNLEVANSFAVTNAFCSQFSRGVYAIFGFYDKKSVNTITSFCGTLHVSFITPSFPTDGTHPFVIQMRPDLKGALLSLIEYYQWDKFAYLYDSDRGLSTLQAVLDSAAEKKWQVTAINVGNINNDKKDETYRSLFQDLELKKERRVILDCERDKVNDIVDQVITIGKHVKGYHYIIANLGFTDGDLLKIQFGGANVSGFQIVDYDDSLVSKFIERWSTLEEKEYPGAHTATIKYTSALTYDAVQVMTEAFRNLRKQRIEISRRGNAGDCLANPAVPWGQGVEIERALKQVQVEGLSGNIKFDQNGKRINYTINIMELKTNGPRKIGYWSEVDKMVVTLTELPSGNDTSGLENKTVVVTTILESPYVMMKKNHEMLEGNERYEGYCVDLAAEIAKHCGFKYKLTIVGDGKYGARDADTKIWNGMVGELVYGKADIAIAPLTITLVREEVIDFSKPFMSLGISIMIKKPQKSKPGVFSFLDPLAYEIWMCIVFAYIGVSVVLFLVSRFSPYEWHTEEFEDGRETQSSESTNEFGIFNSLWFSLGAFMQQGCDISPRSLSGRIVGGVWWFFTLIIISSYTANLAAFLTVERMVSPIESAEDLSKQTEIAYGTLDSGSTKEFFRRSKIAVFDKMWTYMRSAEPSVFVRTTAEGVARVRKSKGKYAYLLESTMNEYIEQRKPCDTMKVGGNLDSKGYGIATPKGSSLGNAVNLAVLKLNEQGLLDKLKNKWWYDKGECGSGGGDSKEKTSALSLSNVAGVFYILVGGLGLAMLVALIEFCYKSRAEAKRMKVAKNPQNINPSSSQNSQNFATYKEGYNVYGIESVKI

Biological target: protein interacting with C kinase 1 (not stated (endogenous in rat or mouse primary cortical neurons)) (UniProt Q9EP80)
Assay: co-IP; lysates of primary cortical neurons; antibody (anti-GluR2, anti-NKAα1 or anti-PICK1) overnight at 4 °C, protein G-agarose 4 h at room temperature, three washes with lysis buffer, Western blot; for GluR2 with PICK1 the neurons were untreated or treated with glutamate (100 µM) + glycine (10 µM) for 30 min, with or without DR-Ab pretreatment

How did the binding turn out when “AMPA receptor subunit GluR2 (from UniProt P19491 22-883)” was run?
Its binding is “binds”.
